# This is one part of the list. The main result of the screen is listed elsewhere. These columns were measured beside it and carry no call. The list favours compounds with an active or inconclusive main result. Words in brackets tell the shape of the fitted curve; partial curves, single points and poor fits give uncertain potencies.
# Assay: qHTS Assay for Lipid Storage Modulators in Drosophila S3 Cells;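 for cell number change: cells counted by Cell Tracker Red CMTPX staining in the red channel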
# Conditions: BODIPY lipid droplet fluorescence, 18-24 h; for cell number change: measured here: cell count max response, cells fed with added oleic acid
# In short: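 Drosophila S3 cells loaded with oleic acid (400 uM, as added) and compounds at several concentrations; lipid droplets imaged by 488-nm laser-scanning cytometry, 500–530 nm intensity and object ratio to cell channel. Percent activity normalized to 20 uM Triacsin C.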
# [1] = measured here: lipid fluorescence (Fed channel) AC50, cells fed with added oleic acid
# [2] = measured here: cell number channel AC50, cells fed with added oleic acid
Structure (SMILES),cell number change,AC50 [1],AC50 [2]
COc1cccc(NC(=O)CSc2ccc3nnc(-c4ccncc4)n3n2)c1,-14.7%,"0.00411 µM [rising, full curve, poor fit]",
O=C(NCc1ccc2c(c1)OCO2)c1ccco1,32.2%,,
O=C(CSc1nc(O)c(C2CCCCC2)c(=O)[nH]1)Nc1ccc(Cl)cc1,,"18.4 µM [falling, partial curve]","0.0146 µM [falling, full curve, poor fit]"
O=C(COC(=O)c1ccc2ccccc2c1O)NCc1ccccc1,-21.5%,,"3.26 µM [falling, partial curve, poor fit]"
Cc1[nH]nc(N=CC2=C(O)CC(c3ccco3)CC2=O)c1-c1ccc(Cl)cc1 (centres undefined),40.7%,"0.13 µM [falling, full curve, poor fit]","18.4 µM [rising, single point]"
COc1cc(CNc2cccc3[nH]c(C(F)(F)F)nc23)cc(OC)c1,5.9%,"6.51 µM [falling, single point]",
CCNC(=O)NC(=O)C(C)Sc1nc2ccccc2n1CC(C)C (centres undefined),-5.98%,,
CC(C)(C)c1cc(C(=O)NCC(=O)OCC(=O)c2cccc([N+](=O)[O-])c2)cc(C(C)(C)C)c1,-25.3%,"0.731 µM [falling, full curve]","0.13 µM [falling, full curve]"
COc1ccc(C2=NN(C(=O)CCC(=O)O)C(c3ccc(OC)c(OC)c3)C2)cc1 (centres undefined),4.99%,"29.1 µM [rising, single point]",
CC(C)(C)n1nc2c(c1NC(=O)COc1ccc(Cl)cc1)CSC2,-18.8%,"0.517 µM [rising, single point]",
O=C(Nc1nnc(S(=O)(=O)N2CCN(c3ccc(F)cc3)CC2)s1)c1ccco1,-14.5%,"2.91 µM [rising, full curve]",
CN(CC(=O)N1CC=C(c2ccccc2)CC1)S(=O)(=O)c1cnc[nH]1,1.07%,"0.651 µM [falling, full curve, poor fit]",
CC(C)OC(=O)C1=C(N)N2C(=O)CSC2=C(C(=O)OC(C)C)C1,40.5%,"16.4 µM [rising, partial curve]","8.2 µM [rising, partial curve, poor fit]"
Cc1cc2c(c(=O)o1)C1O[C@](c3ccsc3)(Cc3ccccc31)O2,-3.78%,,
N/C(=N\OC(=O)c1ccc2ccccc2c1)c1ccncc1,36.8%,,"32.6 µM [rising, partial curve, poor fit]"
Cc1cc(C)c2[nH]c(=O)c(C(c3nnnn3C3CCCC3)N3CCOCC3)cc2c1 (centres undefined),-2.65%,"0.206 µM [rising, full curve, poor fit]",
Cc1ccc(NC(=S)N(CCN2CCOCC2)Cc2cc3cc4c(cc3[nH]c2=O)OCO4)cc1,14.8%,"0.058 µM [rising, full curve, poor fit]",
CC1=C(C(=O)OC(C)C)C(C2CC=CCC2)NC(=O)N1 (centres undefined),-222%,"18.4 µM [falling, partial curve]","23.1 µM [falling, partial curve]"
COc1ccc(N(CC(=O)Nc2ccccc2C(=O)O)S(=O)(=O)c2ccc(C)c([N+](=O)[O-])c2)cc1,77.1%,,
O=C(NNC(=O)c1ccc(F)c(S(=O)(=O)N2CCOCC2)c1)c1ccc(Br)cc1,14.4%,"6.51 µM [rising, full curve]",

# Shown with tabs: entries from further up
Structure (SMILES)	cell number change	AC50 [1]	AC50 [2]
COc1cccc(NC(=O)CSc2ccc3nnc(-c4ccncc4)n3n2)c1	-14.7%	0.00411 µM [rising, full curve, poor fit]	
CCNC(=O)NC(=O)C(C)Sc1nc2ccccc2n1CC(C)C (centres undefined)	-5.98%		
COc1ccc(C2=NN(C(=O)CCC(=O)O)C(c3ccc(OC)c(OC)c3)C2)cc1 (centres undefined)	4.99%	29.1 µM [rising, single point]	

# Individual results from above.
# CN(CC(=O)N1CC=C(c2ccccc2)CC1)S(=O)(=O)c1cnc[nH]1 – AC50 [1]: 0.651 µM [falling, full curve, poor fit]
# COc1cccc(NC(=O)CSc2ccc3nnc(-c4ccncc4)n3n2)c1 – AC50 [1]: 0.00411 µM [rising, full curve, poor fit]

# Later entries

Structure (SMILES),cell number change,AC50 [1],AC50 [2]
CC(C)(C)c1ccc(-c2nc3c(C#N)c(-c4ccc5c(c4)OCO5)ccn3n2)cc1,,,"0.259 µM [rising, full curve]"
CC1CC(C)CN(CCCNS(=O)(=O)c2cc(Br)cc3c2N(C(=O)C2CC2)CC3)C1 (centres undefined),16.2%,"0.58 µM [falling, single point]",
COc1ccc(/C=C/C(=O)N2c3ccccc3Sc3ccc(C(F)(F)F)cc32)cc1,5.63%,"5.8 µM [rising, full curve, poor fit]",
COc1cccc(CN2CCNC(=O)C2CC(=O)NCCN2CCOCC2)c1OC (centres undefined),10.9%,"23.1 µM [rising, partial curve, poor fit]",
O=C(CCl)NN=C(c1ccccc1)c1ccccc1,,"29.1 µM [rising, partial curve, poor fit]","0.116 µM [rising, single point]"
CC(=O)Nc1cc2c(cc1NC(=O)Cn1nc(-c3ccccc3)ccc1=O)OCCO2,46.2%,,
O=C(Nc1ccc(Cl)c(Cl)c1)Nc1nnc(CC2=CCCCC2)s1,-29.5%,"14.6 µM [falling, single point]",
O=C(Cn1c(=O)c2c3c(sc2n(Cc2ccccc2)c1=O)CCCC3)NCCO,-15.9%,"14.6 µM [falling, partial curve, poor fit]",
Cc1ccc(O)c(NC(=O)c2cc(-c3ccco3)on2)c1,5%,"1.3 µM [rising, partial curve]",
COC(=O)C(C)n1cnc2c(nnn2-c2ccc(C)cc2)c1=O (centres undefined),2.02%,"0.058 µM [rising, full curve, poor fit]",
CCN(CC)CCCNC(=O)c1sc2nc(-c3ccc(F)cc3)cn2c1C,-0.514%,,
CNc1ccc(Cl)cc1C(N)=O,14%,"6.51 µM [falling, single point]",
CN(Cc1ccccc1)C(=O)c1cccc(C(=O)N(C)Cc2ccccc2)c1,-14%,"6.51 µM [falling, full curve, poor fit]",
COc1ccc(NC(=S)N2CCC(NC(=O)c3ccccc3C)CC2)cc1,16.7%,,"2.59 µM [rising, partial curve, poor fit]"
Cc1oc2cc3oc(=O)c(CCC(=O)NCCCN4CCCC4=O)c(C)c3cc2c1C,4.65%,"0.58 µM [rising, single point]",
Cc1ccccc1NC(=O)c1cc[n+]([O-])cc1,1.21%,,
COc1cccc(CC(=O)NN2C(=O)NC3(CCCCC3)C2=O)c1,-13.9%,"0.13 µM [falling, full curve, poor fit]",
O=C(N1CCCCC1)C1(S(=O)(=O)c2ccccc2)CC=CC1,1.5%,"6.51 µM [rising, single point]",
COc1ccc(CCNCC(=O)Nc2ccc(C)c(Br)c2)cc1OC,-5.74%,"29.1 µM [rising, single point]",
CCOc1ccccc1NC(=O)CSc1nnc(Cc2ccc(OC)cc2)c(=O)n1N,100%,,"18.4 µM [rising, single point]"

Structure (SMILES),cell number change,AC50 [1],AC50 [2]
Cc1ccc(C(=O)N(CC(=O)Nc2sc(C)c(C)c2C(N)=O)C2CCCC2)cc1,-4.58%,"0.58 µM [falling, full curve]",
Cc1cc(C)n(CCNC(=O)CCc2nnc(CCc3ccccc3)o2)n1,11.8%,"0.58 µM [falling, single point]",
Cc1cc(Cl)ccc1NC(=S)NCc1ccccc1Cl,9.53%,"20.6 µM [falling, single point]",
CCOC(=O)CSc1nc(-c2ccccc2)ns1,-43.9%,"2.31 µM [falling, partial curve, poor fit]","2.31 µM [falling, full curve, poor fit]"
COc1ccc(CNC(=O)CCN2C(=O)[C@@H]3Cc4ccccc4CN3C2=O)cc1,35.2%,"14.6 µM [rising, partial curve]","3.26 µM [rising, partial curve]"
CC(C)n1cnc2c(N(C)c3cccc(Cl)c3)nc(N(CCO)CCO)nc21,14.2%,"1.84 µM [rising, full curve]",
CCOc1ccc(S(=O)(=O)Nc2cccc(C(=O)NCC(c3ccc(OC)cc3)N3CCOCC3)c2)cc1 (centres undefined),3.18%,,
CCOC(=O)C1(CC2CCCCO2)CCN(S(=O)(=O)c2ccc(OC)cc2)CC1 (centres undefined),-26.3%,"6.51 µM [falling, single point]",
COC(=O)c1ccccc1NC(=O)CSc1ccccc1,-18.8%,,
COc1ccccc1Nc1nnc(SCC(=O)Nc2nc(-c3ccc(F)cc3)cs2)s1,-60.1%,"1.3 µM [falling, full curve]","1.84 µM [falling, full curve]"
COc1cc(/C=N/N2CCOCC2)ccc1OCc1ccccc1,17.8%,"29.1 µM [rising, single point]",
COc1ccccc1C(CNC(=O)C1CCN(C(=O)Nc2ccccc2)CC1)N1CCCC1 (centres undefined),6.72%,"23.1 µM [rising, partial curve]",
CN(C(=S)NC(=O)c1ccc(F)cc1)C1CCCCC1,4.69%,"0.058 µM [rising, partial curve, poor fit]",
Cc1cccc(OCC(=O)NCC(=O)N/N=C/c2cc(Br)ccc2OCc2ccccc2)c1,-2.35%,"1.46 µM [rising, partial curve]",
Cc1ccccc1Nc1nc(N2CCOCC2)nc(N2CCOCC2)n1,,,"0.00461 µM [rising, full curve, poor fit]"
COc1ccc([C@]23Cc4cc(C#N)ccc4C(O2)c2c(cc(-c4ccccc4)oc2=O)O3)cc1,-0.872%,"1.19 µM [rising, single point]",
CCC(=O)Nc1cccc(NC(=O)CSc2nnc(C3CC3)n2C)c1,0.26%,"29.1 µM [rising, single point]",
N=C1CCCN1c1ccccc1O,-30.1%,,
N/C(Cc1ccc([N+](=O)[O-])cc1)=N\OC(=O)Cc1ccccc1,27.1%,,
COc1ccc(/C(N)=N/OC(=O)Oc2ccccc2)cc1OC,6.2%,"0.103 µM [falling, full curve, poor fit]",

# From PubChem BioAssay AID2685 (National Center for Advancing Translational Sciences (NCATS), 2010)
